The values below are quoted from earlier work in patent publication US8679539B2, “Drug-loaded poly (alkyl-cyanoacrylate) nanoparticles and process for the preparation thereof” (Tong Shen Enterprise Co., Ltd., priority 2007, dated 2014).

As to `CC(=O)O[C@H]1C(=O)[C@@]2(C)[C@H]([C@H](OC(=O)c3ccccc3)[C@]3(O)C[C@H](OC(=O)[C@H](O)[C@@H](NC(=O)c4ccccc4)c4ccccc4)C(C)=C1C3(C)C)[C@]1(OC(C)=O)CO[C@@H]1C[C@@H]2O` [Paclitaxel], the Water solubility result is on record as “less than 3 ng/ml”.
